No constants are given. Whether binding was seen depends on the method and setting. Binding seen in cells or lysates may run through a third protein. Some entries that bind do so weakly or less than the wild type. Where a sequence is shown, tags or fusion partners need not be part of it.
Target: T1, Myc‐RNF125 (UniProt Q96EQ8)
T1 sequence: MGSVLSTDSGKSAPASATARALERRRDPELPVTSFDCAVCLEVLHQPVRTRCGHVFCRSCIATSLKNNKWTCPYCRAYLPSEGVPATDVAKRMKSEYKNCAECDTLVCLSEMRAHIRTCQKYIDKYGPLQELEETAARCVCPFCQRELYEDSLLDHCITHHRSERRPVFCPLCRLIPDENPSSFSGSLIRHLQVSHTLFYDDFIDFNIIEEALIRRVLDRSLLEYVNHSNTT
Assay: co-IP; anti-Myc immunoprecipitation from lysates of 293T cells transfected with Flag-RIG-1, Myc-RNF125 and circREEP3

binding: binds
B1: Flag‐RIG‐1 (protein, UniProt O95786 1-925)
chain: MTTEQRRSLQAFQDYIRKTLDPTYILSYMAPWFREEEVQYIQAEKNNKGPMEAATLFLKFLLELQEEGWFRGFLDALDHAGYSGLYEAIESWDFKKIEKLEEYRLLLKRLQPEFKTRIIPTDIISDLSECLINQECEEILQICSTKGMMAGAEKLVECLLRSDKENWPKTLKLALEKERNKFSELWIVEKGIKDVETEDLEDKMETSDIQIFYQEDPECQNLSENSCPPSEVSDTNLYSPFKPRNYQLELALPAMKGKNTIICAPTGCGKTFVSLLICEHHLKKFPQGQKGKVVFFANQIPVYEQQKSVFSKYFERHGYRVTGISGATAENVPVEQIVENNDIIILTPQILVNNLKKGTIPSLSIFTLMIFDECHNTSKQHPYNMIMFNYLDQKLGGSSGPLPQVIGLTASVGVGDAKNTDEALDYICKLCASLDASVIATVKHNLEELEQVVYKPQKFFRKVESRISDKFKYIIAQLMRDTESLAKRICKDLENLSQIQNREFGTQKYEQWIVTVQKACMVFQMPDKDEESRICKALFLYTSHLRKYNDALIISEHARMKDALDYLKDFFSNVRAAGFDEIEQDLTQRFEEKLQELESVSRDPSNENPKLEDLCFILQEEYHLNPETITILFVKTRALVDALKNWIEGNPKLSFLKPGILTGRGKTNQNTGMTLPAQKCILDAFKASGDHNILIATSVADEGIDIAQCNLVILYEYVGNVIKMIQTRGRGRARGSKCFLLTSNAGVIEKEQINMYKEKMMNDSILRLQTWDEAVFREKILHIQTHEKFIRDSQEKPKPVPDKENKKLLCRKCKALACYTADVRVIEECHYTVLGDAFKECFVSRPHPKPKQFSSFEKRAKIFCARQNCSHDWGIHVKYKTFEIPVIKIESFVVEDIATGVQTLYSKWKDFHFEKIPFDPAEMSK

From article PMC9069384
